PubChem BioAssay AID602196 | INSERM, 2012

Test: 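Genes whose knock-down alters cisplatin killing of lung cancer cells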
Cells: human A549 lung cancer cells
Reagent: siRNA pair against human genes
Time to read-out: 48 h transfection before cisplatin; time from cisplatin to read-out not stated
Treatment: cisplatin at a dose killing half of control-siRNA cells; exact dose and duration not given
Measured: 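Cisplatin cell death as a shift from the 50% death seen with control siRNA; siRNAs toxic or growth-blocking alone scored 0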
Reading the numbers: two-siRNA summed score (-2 to +2): higher = both siRNAs protect from cisplatin killing; -2 means both sensitise; mean protection from cisplatin (shift in death) and protection from cisplatin (shift in death), siRNA C and protection from cisplatin (shift in death), siRNA D: higher = protection from cisplatin killing
Call rule: 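siRNAs harmful alone (LDH or WST-1) get 0; others get +1 for less and -1 for more cisplatin killing; genes are active when the two siRNAs give the same sign, summing to ±2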
Calls: active = both siRNAs shift cisplatin killing the same way; inactive = no consistent shift, or siRNA harmful alone
In all, the deposit lists about 23,000 reagents; this is a part drawn at random. 455 of them (2%) count as active. 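Active includes both protection and sensitisation; some change values fall well beyond the stated -50 to +50 range.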 Reagents against one gene are numbered here. Not stated in the record: the amount of reagent.

gene symbol	reagent no.	two-siRNA summed score (-2 to +2)	mean protection from cisplatin (shift in death) (%)	protection from cisplatin (shift in death), siRNA C (%)	protection from cisplatin (shift in death), siRNA D (%)	Outcome
SERF2	1	0	21.9	12.6	31.2	inactive
NAXE	1	0	-1.1	-0.9	-1.2	inactive
SIKE1	1	0	14	14.6	13.4	inactive
PROSER2	1	0	6.1	9.2	2.9	inactive
PXK	1	1	16.5	23.1	9.9	inactive
LOC400740	1	0	4.4	11	-2.2	inactive
FKBPL	1	0	4.1	11.3	-3.1	inactive
YPEL5	1	0	-5.9	-2.6	-9.3	inactive
KCNK6	1	0	-6.4	-9.3	-3.6	inactive
RNF133	1	1	5.3	18.5	-7.9	inactive
C8orf44	1	0	17.6	6.2	28.9	inactive
FDCSP	1	-1	-2.8	5.3	-10.8	inactive
NACC1	1	0	-1.9	-5.4	1.5	inactive
AMELX	1	-1	-13.7	-8.2	-19.2	inactive
MAGEA2	1	0	3	6.9	-1	inactive
LOC440262	1	0	-3.8	-4.4	-3.2	inactive
LOC139886	1	-1	-18.4	-23.6	-13.2	inactive
S100A2	1	0	15.1	23.1	7.1	inactive
B4GALT2	1	0	-5.4	5.1	-16	inactive
LOC440986	1	2	20	16.4	23.7	active
LOC441138	1	0	3.9	3.9	4	inactive
RABEPK	1	0	-13.3	-5.9	-20.7	inactive
SCN2A	1	0	1.8	0.7	2.9	inactive
LOC441650	1	0	-1.7	-9.3	5.8	inactive
ILF2	1	-1	-11.8	1.7	-25.4	inactive
ZDHHC11	1	-1	-10.8	0.5	-22.2	inactive
LINC02139	1	0	7.7	15.1	0.3	inactive
MRPL38	1	0	-3.7	-7.7	0.2	inactive
LOC442723	1	0	14.4	3	25.7	inactive
KLHL14	1	0	8.1	13.3	2.9	inactive
FAM187B	1	0	-5.4	30	-40.8	inactive
BOLA3	1	0	-1	6.1	-8.1	inactive
HEBP2	1	0	0	3	-2.9	inactive
PWWP3A	1	0	-4.1	1.5	-9.7	inactive
STK11IP	1	-1	-10.4	-11.9	-8.9	inactive

Next part, starting with the last 4 of the part before.
gene symbol	reagent no.	two-siRNA summed score (-2 to +2)	mean protection from cisplatin (shift in death) (%)	protection from cisplatin (shift in death), siRNA C (%)	protection from cisplatin (shift in death), siRNA D (%)	Outcome
BOLA3	1	0	-1	6.1	-8.1	inactive
HEBP2	1	0	0	3	-2.9	inactive
PWWP3A	1	0	-4.1	1.5	-9.7	inactive
STK11IP	1	-1	-10.4	-11.9	-8.9	inactive
ST3GAL4	1	0	-2.2	-0.8	-3.5	inactive
ZNF30	1	0	0	-2.1	2	inactive
ERG	1	-1	8.2	30.5	-14.1	inactive
GNB1	1	0	-3.5	-15.5	8.5	inactive
LOC93082	1	0	-11.8	-12.2	-11.4	inactive
POU5F1	1	0	7.7	16.7	-1.3	inactive
KIF24	1	0	7.7	-16.9	32.3	inactive
KIF24	2	1	17.2	23.5	10.9	inactive
CCL8	1	0	2.4	-0.5	5.2	inactive
CFLAR	1	0	-12.8	-15.9	-9.7	inactive
LOC441831	1	0	17.2	24.3	10.1	inactive
CCDC27	1	0	-5.7	-17.4	6.1	inactive
KIF27	1	-1	-21.8	-16.1	-27.4	inactive
PLPPR1	1	1	17.6	22.6	12.5	inactive
LOC388593	1	0	26.2	5.4	47	inactive
SRD5A3	1	0	0.4	-3.4	4.3	inactive
DKFZp761O2018	1	0	6	6.5	5.5	inactive
PCDH17	1	0	-4.8	-16.2	6.6	inactive
MBOAT2	1	2	18.3	22.9	13.7	active
LOC345711	1	0	4.7	4.2	5.2	inactive
HK2	1	0	5	3	6.9	inactive
ADAMTSL1	1	1	6.9	8	5.9	inactive
ADAMTSL1	2	1	15.7	16.5	15	inactive
